Like-named read-outs stand apart in the source and are kept apart here. These are yes or no findings as the source states them, for the method shown. Binding seen in cells or lysates may run through a third protein. Some binding calls cover weakened binding; strength is not graded here.
Tests used:
[1] = molecular target: T1, USP39 Venus BiFC construct (UniProt Q53GS9); test: split reporter
T1 sequence: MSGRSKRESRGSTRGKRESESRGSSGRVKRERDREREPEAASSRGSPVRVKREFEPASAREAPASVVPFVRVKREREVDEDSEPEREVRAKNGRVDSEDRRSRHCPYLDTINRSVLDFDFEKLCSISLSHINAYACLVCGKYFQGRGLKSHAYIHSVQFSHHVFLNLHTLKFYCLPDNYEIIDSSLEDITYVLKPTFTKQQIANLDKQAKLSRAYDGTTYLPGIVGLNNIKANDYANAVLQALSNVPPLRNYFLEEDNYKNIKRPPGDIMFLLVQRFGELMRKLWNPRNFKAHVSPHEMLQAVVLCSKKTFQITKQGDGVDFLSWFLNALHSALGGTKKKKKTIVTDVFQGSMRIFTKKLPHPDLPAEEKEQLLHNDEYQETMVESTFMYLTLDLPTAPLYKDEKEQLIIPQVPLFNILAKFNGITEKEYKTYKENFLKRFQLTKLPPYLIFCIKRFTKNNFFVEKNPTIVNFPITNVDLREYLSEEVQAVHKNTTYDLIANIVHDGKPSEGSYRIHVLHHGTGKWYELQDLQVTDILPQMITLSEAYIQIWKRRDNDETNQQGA

The chains behind the UniProt entries cited, without tags or fusion partners.
UniProt Q13263: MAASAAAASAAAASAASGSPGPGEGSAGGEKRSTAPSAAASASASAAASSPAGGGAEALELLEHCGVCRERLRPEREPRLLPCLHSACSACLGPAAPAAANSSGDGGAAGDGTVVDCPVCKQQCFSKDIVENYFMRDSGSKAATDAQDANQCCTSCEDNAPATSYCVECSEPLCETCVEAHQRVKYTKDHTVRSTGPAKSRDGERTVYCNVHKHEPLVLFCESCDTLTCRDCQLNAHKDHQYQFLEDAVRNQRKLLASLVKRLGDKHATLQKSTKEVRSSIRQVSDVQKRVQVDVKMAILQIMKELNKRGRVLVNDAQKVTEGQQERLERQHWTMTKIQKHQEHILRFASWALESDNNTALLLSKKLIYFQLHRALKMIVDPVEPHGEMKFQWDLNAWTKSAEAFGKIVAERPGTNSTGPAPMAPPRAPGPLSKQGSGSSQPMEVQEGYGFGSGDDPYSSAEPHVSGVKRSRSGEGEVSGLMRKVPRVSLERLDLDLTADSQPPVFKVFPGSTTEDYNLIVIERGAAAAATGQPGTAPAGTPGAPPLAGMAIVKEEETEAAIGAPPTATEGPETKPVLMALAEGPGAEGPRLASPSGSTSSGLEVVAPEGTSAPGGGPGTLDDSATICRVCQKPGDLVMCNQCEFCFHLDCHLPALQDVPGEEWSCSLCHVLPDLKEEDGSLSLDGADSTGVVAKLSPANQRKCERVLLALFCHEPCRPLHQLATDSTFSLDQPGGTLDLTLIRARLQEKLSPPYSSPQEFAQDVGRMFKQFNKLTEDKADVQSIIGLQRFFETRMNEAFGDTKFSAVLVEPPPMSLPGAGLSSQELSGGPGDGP

[2] = molecular target: T1, USP39 Venus BiFC construct; test: split reporter; remark: listed apart in the source
USP39-mCherry (wildtype) = molecular target: T2, USP39-mCherry (wildtype) (UniProt Q53GS9); test: co-IP
T2 sequence: T1 sequence

## TRIM28 Venus BiFC construct (from UniProt Q13263 1-835)
[1]
  binding: binds
[2]
  binding: binds

## Tripartite motif-containing 28 protein (TRIM28), endogenous, non-phosphorylated state (from UniProt Q13263 1-835)
USP39-mCherry (wildtype)
  binding: binds

From doi:10.1101/2025.07.07.663440
